The values that follow come from paper PMC2964333.

The chains behind the UniProt entries cited, without tags or fusion partners. Where a name states a change or a piece, a line headed by the entry shows the natural chain unless it says otherwise.
UniProt O08863: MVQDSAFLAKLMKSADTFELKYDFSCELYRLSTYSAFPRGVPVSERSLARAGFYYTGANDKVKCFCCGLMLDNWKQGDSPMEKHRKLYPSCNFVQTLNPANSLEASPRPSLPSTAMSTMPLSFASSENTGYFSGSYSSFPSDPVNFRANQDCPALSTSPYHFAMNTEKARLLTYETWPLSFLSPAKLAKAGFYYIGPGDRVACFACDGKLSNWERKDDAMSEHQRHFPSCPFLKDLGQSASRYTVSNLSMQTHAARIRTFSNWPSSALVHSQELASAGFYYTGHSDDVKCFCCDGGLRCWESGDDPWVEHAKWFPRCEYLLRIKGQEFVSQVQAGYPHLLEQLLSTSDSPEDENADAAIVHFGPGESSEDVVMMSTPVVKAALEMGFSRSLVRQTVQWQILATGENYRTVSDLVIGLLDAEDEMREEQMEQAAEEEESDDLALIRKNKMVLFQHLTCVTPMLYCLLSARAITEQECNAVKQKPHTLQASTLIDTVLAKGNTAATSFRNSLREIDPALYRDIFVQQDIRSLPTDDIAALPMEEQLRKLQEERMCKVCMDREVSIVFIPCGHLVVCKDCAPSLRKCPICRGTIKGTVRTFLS

No constants are given. Whether binding was seen depends on the method and setting. In cells and extracts the contact can be indirect. Some binding calls cover weakened binding; strength is not graded here.

Test [1] deals with GST-tagged murine c-IAP2 (mouse) (UniProt O08863). The experiment in a line: pull-down; GST-tagged c-IAP2 proteins on glutathione Sepharose 4B beads incubated with 35S-labeled in vitro translated TRAF2 for 3 h at 4°C in 120 mM NaCl, 10% glycerol, 1% Triton X-100, 50 mM Tris pH 7.5; washed, eluted, SDS-PAGE; only the target purified.
For test [2], the target named is GST-tagged murine c-IAP2^H570A (mouse) (UniProt O08863). Described as above.

B1: TNF Receptor Associated Factor 2 (TRAF2), 35S-labeled, in vitro translated (protein, UniProt P39429 1-501)
chain: MAAASVTSPGSLELLQPGFSKTLLGTRLEAKYLCSACKNILRRPFQAQCGHRYCSFCLTSILSSGPQNCAACVYEGLYEEGISILESSSAFPDNAARREVESLPAVCPNDGCTWKGTLKEYESCHEGLCPFLLTECPACKGLVRLSEKEHHTEQECPKRSLSCQHCRAPCSHVDLEVHYEVCPKFPLTCDGCGKKKIPRETFQDHVRACSKCRVLCRFHTVGCSEMVETENLQDHELQRLREHLALLLSSFLEAQASPGTLNQVGPELLQRCQILEQKIATFENIVCVLNREVERVAVTAEACSRQHRLDQDKIEALSNKVQQLERSIGLKDLAMADLEQKVSELEVSTYDGVFIWKISDFTRKRQEAVAGRTPAIFSPAFYTSRYGYKMCLRVYLNGDGTGRGTHLSLFFVVMKGPNDALLQWPFNQKVTLMLLDHNNREHVIDAFRPDVTSSSFQRPVSDMNIASGCPLFCPVSKMEAKNSYVRDDAIFIKAIVDLTGL
modifications: 35S-labeled
For B1, the binding result in test [1] and in test [2] was “binds” throughout.
